These are yes or no findings as the source states them, for the method shown. In cells and extracts the contact can be indirect. Some binding calls cover weakened binding; strength is not graded here.

By UniProt entry, the sequences of proteins in these tests, tags left out. Where a name states a change or a piece, a line headed by the entry shows the natural chain unless it says otherwise.
UniProt P04608: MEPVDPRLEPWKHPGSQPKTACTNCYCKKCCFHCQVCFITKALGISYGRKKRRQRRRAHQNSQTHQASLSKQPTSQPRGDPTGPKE
UniProt O94992: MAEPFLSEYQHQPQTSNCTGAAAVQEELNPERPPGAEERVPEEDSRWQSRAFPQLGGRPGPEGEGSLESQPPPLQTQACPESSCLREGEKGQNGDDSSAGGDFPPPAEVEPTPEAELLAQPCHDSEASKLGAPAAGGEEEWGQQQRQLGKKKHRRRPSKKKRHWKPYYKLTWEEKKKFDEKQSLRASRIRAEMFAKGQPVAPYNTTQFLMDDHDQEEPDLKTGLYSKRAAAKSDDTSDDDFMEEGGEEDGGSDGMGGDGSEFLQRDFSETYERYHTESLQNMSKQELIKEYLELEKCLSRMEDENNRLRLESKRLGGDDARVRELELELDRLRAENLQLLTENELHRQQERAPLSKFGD
UniProt O60563: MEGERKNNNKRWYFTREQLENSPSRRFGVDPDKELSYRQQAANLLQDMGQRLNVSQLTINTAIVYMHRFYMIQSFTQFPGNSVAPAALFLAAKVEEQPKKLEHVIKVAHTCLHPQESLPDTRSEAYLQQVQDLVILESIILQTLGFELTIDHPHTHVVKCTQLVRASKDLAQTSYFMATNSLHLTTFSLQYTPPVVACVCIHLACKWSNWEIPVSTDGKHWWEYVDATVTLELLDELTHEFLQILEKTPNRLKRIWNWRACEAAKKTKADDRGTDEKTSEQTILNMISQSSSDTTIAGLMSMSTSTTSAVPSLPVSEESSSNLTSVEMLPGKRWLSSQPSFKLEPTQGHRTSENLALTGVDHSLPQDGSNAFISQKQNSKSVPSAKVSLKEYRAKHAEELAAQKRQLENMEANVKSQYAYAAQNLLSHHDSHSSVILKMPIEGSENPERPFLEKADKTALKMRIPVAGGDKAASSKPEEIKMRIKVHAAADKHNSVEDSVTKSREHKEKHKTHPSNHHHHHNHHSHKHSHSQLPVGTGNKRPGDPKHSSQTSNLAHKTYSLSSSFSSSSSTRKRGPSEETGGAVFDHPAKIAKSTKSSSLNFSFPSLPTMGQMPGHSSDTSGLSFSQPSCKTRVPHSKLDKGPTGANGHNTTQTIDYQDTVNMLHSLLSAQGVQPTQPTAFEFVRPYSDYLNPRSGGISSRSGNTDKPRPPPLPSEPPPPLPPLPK
UniProt Q9C0C9: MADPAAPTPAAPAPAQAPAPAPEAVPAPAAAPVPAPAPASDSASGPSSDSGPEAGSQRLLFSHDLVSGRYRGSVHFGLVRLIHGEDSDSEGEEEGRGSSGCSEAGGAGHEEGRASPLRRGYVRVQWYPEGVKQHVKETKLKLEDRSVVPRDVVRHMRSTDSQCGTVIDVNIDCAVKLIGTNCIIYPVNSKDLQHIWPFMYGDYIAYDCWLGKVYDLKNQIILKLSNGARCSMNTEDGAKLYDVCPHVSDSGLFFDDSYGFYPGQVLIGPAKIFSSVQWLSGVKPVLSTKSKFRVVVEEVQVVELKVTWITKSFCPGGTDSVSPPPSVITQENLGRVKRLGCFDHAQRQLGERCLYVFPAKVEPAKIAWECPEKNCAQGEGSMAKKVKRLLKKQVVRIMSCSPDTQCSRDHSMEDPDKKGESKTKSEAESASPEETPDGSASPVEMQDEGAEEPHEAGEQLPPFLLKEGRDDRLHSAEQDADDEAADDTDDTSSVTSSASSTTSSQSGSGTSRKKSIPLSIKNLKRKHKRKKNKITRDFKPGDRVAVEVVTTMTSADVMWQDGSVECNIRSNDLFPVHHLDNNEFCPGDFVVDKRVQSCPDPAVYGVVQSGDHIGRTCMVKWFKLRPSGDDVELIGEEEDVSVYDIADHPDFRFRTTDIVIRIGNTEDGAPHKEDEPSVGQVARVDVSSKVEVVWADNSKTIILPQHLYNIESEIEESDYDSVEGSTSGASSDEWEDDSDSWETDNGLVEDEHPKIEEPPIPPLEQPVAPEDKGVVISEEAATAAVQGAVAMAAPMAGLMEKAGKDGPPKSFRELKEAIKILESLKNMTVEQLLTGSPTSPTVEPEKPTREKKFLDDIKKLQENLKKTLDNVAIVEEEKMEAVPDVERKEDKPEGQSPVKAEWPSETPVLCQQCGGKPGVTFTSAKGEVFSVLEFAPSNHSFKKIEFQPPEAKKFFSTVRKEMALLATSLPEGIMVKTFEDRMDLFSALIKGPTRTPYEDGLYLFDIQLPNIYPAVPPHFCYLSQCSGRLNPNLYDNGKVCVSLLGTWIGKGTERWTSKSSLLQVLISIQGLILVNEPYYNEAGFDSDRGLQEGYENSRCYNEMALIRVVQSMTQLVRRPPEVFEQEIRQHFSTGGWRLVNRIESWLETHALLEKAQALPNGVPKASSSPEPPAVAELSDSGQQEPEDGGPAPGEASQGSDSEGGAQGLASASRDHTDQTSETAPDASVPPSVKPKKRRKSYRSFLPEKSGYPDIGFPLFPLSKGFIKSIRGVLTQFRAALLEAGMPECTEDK

Experimental findings from PMC5999396 are described below.

Assay [1] addresses HIV-1 HXB2 Tat-STREP (HIV-1 HXB2) (UniProt P04608). Briefly: co-IP; tandem affinity purification from HEK 293T transfected with Tat-STREP and UBE2O-FLAG: STREP IP, then the elution on FLAG-M2 resin overnight at 4 C; endogenous HEXIM1 by western blot.
Assay [2] has the same target. Briefly: co-IP; STREP-tagged bait transfected in HEK 293T or HeLa; lysate on Streptactin Superflow resin at 4 C; wash 50 mM Tris-HCl pH 8.0, 150 mM NaCl, 2 mM MgCl2, 0.5% Triton X-100; endogenous preys by western blot; with or without Tat co-transfection; with 100 uM DRB or DMSO for 1 hr before lysis.
Assay [3] concerns the target T1, LARP7-STREP (UniProt Q4G0J3).
T1 sequence: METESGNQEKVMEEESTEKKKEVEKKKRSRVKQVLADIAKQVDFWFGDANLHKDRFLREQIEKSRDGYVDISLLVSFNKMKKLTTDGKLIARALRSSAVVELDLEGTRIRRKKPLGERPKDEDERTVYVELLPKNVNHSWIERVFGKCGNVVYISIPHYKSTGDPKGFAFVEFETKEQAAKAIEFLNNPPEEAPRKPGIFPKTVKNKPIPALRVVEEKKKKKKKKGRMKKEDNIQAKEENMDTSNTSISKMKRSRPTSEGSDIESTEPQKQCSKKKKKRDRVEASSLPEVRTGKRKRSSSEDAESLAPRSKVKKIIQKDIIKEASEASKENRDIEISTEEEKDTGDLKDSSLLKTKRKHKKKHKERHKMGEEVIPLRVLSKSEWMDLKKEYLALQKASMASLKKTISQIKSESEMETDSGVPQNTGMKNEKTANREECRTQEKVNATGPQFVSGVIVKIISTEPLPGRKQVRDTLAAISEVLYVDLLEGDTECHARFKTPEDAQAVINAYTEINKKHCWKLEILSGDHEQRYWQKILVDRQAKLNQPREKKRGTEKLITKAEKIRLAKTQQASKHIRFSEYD
The assay is described as above.

As to “HEXIM1 (endogenous) (from UniProt O94992 1-359)”, the binding result in assay [1], in assay [2] and in assay [3] was “binds” throughout. Regarding “P-TEFb (endogenous; cyclin T1 and CDK9) (from UniProt O60563 1-726; P50750 1-372) (complex)”, in assay [2], the binding result is recorded as “binds”. In the case of “UBE2O-FLAG (from UniProt Q9C0C9 1-1292) (enzyme)”, the binding result in assay [1] was “binds”.
